Laboratory results from patent publication EP1210344B1, “HETEROPOLYCYCLIC COMPOUNDS AND THEIR USE AS METABOTROPIC GLUTAMATE RECEPTOR ANTAGONISTS” (NPS PHARMACEUTICALS, INC., priority 1999, dated 2001).

Amino acid sequences for entries named in this document (tags omitted). Residues count along the entry.
UniProt P41594, 580-876, stated change not applied: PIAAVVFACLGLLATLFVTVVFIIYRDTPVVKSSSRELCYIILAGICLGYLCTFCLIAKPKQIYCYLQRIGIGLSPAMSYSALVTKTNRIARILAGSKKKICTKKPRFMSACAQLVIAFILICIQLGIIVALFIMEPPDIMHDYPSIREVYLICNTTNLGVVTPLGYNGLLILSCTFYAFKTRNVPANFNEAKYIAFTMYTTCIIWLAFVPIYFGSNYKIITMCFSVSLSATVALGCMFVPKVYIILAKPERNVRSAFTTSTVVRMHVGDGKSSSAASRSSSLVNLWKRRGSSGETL

Molecular target: chimeric CaR/mGluR5d receptor (Homo sapiens, UniProt P41594)
Assay: CaR/mGluR5d Screening Assay (FLIPR, intracellular calcium)
Format: cell-based
Conditions: HEK 293 cells expressing the chimeric CaR/mGluR5d receptor, Fluo-3 fluorescence; read-out: IC50 value in relation to CaR/mGluR5d
Method: HEK 293 cells expressing the chimeric CaR/mGluR5d receptor (clonal cell line hCaR/hmGluR5d_hek6) are plated 24 hours prior to assay at a density of 100,000 cells per well in Collagen I-coated 96-well black, clear bottom plates (Becton Dickenson) in DMEM supplemented with 10% FBS (Hyclone).
On the day of the assay, tissue culture medium is aspirated from the wells of a plate and 80 µL of Assay Buffer (Assay Buffer is: 20 mM HEPES, 146 mM NaCl, 5 mM KCl, 1 mM MgCl2, 1 mM CaCl2, 1 mg/ml BSA, 1 mg/ml glucose, pH 7.4) supplemented with 6 µM of the Ca^2+-sensitive dye, Fluo-3 AM (Molecular Probes) and 0.025% Pluronic (Molecular Probes) is added to each well. The plate is then incubated in the dark for 1 hour at room temperature to efficiently load the cells with Fluo-3. At the end of the incubation, extracellular Fluo-3 is removed by washing the plate with Assay buffer. Assay Buffer is added back to each well (final volume = 160 µL) prior to beginning the assay.
The plate is loaded into a FLIPR robotic device (Molecular Devices) with the laser setting at 0.8 Watts. […] Relative fluorescence intensity (excitation λ = 488 nm / emission λ = 510 nM) is monitored at relevant time intervals throughout the assay period to measure receptor activation and/or inhibition.

N#Cc1cccc(-c2nc(-c3ccccn3)no2)c1 [B21, 3-(2-Pyridyl)-5-(3-cyanophenyl)-1,2,4-oxadiazole] gave an IC50 of 43 nM.
